pKd: −log10 of the molar value. At least one structure is not confirmed: it was looked up by name or label, or the drawing left a doubt. Non-standard residues stand in square brackets, D forms with d. Residues, ends and D or L forms follow the SMILES beside them. Cha = N[C@@H](CC1CCCCC1)C(=O)O
Molecular target: T1, PTH receptor present on SaOS-2 (human osteosarcoma cells) (Homo sapiens, UniProt Q03431)
T1 construct: host or cells: SaOS-2 human osteosarcoma cells (intact, confluent monolayers)
T1 sequence (Q03431 27-593): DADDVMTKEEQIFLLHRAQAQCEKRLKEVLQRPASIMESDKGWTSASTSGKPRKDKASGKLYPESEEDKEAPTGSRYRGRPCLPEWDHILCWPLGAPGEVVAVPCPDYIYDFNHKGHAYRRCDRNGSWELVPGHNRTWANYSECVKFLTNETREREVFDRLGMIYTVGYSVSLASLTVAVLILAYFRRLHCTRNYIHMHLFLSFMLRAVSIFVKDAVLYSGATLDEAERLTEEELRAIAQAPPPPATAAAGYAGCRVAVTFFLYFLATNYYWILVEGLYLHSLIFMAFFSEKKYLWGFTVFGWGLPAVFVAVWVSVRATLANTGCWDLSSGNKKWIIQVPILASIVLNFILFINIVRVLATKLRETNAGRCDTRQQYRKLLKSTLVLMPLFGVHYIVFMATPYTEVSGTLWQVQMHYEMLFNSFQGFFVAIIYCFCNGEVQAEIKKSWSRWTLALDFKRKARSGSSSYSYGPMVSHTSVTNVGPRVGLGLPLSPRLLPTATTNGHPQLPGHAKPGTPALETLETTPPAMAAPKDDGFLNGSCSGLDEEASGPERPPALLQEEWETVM
Experiment: Binding to PTH receptor on SaOS-2 cells (competition with mono-125I-[Nle8,18,Tyr34(3-125I)]bPTH(1-34)NH2)
Details: Table I, 2 hrs at room temperature, read-out: Kd (half maximal inhibition of binding of mono-125I-[Nle8,18, Tyr34(3-125I)]bPTH(1-34)NH2)
Procedure: A. Binding to PTH Receptor
The peptides of the invention were tested for their ability to bind to the PTH receptor present on SaOS-2 (human osteosarcoma cells). SaOS-2 cells (American Type Culture Collection, Rockville, Md.; ATCC #HTB 85) were maintained in RPMI 1640 medium (Sigma, St. Louis, Mo.) supplemented with 10% fetal bovine serum (FBS) and 2 mM glutamine at 37EC in a humidified atmosphere of 5% CO2 in air. The medium was changed every three or four days, and the cells were subcultured every week by trypsinization.
SaOS-2 cells were maintained for four days until they had reached confluence. The medium was replaced with 5% FBS in RPMI 1640 medium and incubated for 2 hrs at room temperature with 10×10^4 cpm mono-^125I-[Nle^8,18, Tyr^34(3-^125I)]bPTH(1-34)NH2 in the presence of a competing peptides of the invention at various concentrations between 10^−11 M to 10^−4 M. The cells were washed four times with ice-cold PBS and lysed with 0.1 M NaOH, and the radioactivity associated with the cells was counted in a scintillation counter. […]
The binding assay was conducted with various peptides of the invention, and the Kd value (half maximal inhibition of binding of mono-^125I-[Nle^8,18, Tyr^34(3-^125I)]bPTH(1-34)NH2) for each peptide was calculated.

| Structure (SMILES) | pKd |
| --- | --- |
| CC[C@H](C)[C@H](NC(=O)[C@H](CCC(=O)O)NC(=O)[C@H](CO)NC(=O)[C@@H](NC(=O)[C@@H](N)CO)C(C)C)C(=O)N[C@@H](CCC(N)=O)C(=O)N[C@@H](CC(C)C)C(=O)N[C@@H](CCSC)C(=O)N[C@@H](Cc1c[nH]cn1)C(=O)N[C@@H](CC(N)=O)C(=O)N[C@@H](CC(C)C)C(=O)NCC(=O)N[C@@H](CCCCN)C(=O)N[C@@H](Cc1c[nH]cn1)C(=O)N[C@@H](CC(C)C)C(=O)N[C@@H](CC(N)=O)C(=O)NC(C)(C)C(=O)N[C@@H](CCSC)C(=O)N[C@@H](CCC(=O)O)C(=O)N[C@@H](CCCNC(=N)N)C(=O)N[C@H](C(=O)N[C@@H](CCC(=O)O)C(=O)N[C@@H](Cc1c[nH]c2ccccc12)C(=O)N[C@@H](CC(C)C)C(=O)N[C@@H](CCCNC(=N)N)C(=O)N[C@@H](CCCCN)C(=O)N[C@@H](CCCCN)C(=O)N[C@@H](CC(C)C)C(=O)N[C@@H](CCC(N)=O)C(=O)N[C@@H](CC(=O)O)C(=O)N[C@H](C(=O)N[C@@H](Cc1c[nH]cn1)C(=O)N[C@@H](CC(N)=O)C(=O)N[C@@H](Cc1ccccc1)C(=O)O)C(C)C)C(C)C [[Aib^17]hPTH(1-34)] | 7.30 |
| CC[C@H](C)[C@H](NC(=O)[C@H](CCC(=O)O)NC(=O)[C@H](CO)NC(=O)[C@@H](NC(=O)[C@@H](N)CO)C(C)C)C(=O)N[C@@H](CCC(N)=O)C(=O)N[C@@H](CC1CCCCC1)C(=O)N[C@@H](CCSC)C(=O)N[C@@H](Cc1c[nH]cn1)C(=O)N[C@@H](CC(N)=O)C(=O)N[C@@H](CC1CCCCC1)C(=O)NCC(=O)N[C@@H](CCCCN)C(=O)N[C@@H](Cc1c[nH]cn1)C(=O)N[C@@H](CC1CCCCC1)C(=O)N[C@@H](CC(N)=O)C(=O)N[C@@H](CO)C(=O)N[C@@H](CCSC)C(=O)N[C@@H](CCC(=O)O)C(=O)N[C@@H](CCCNC(=N)N)C(=O)N[C@H](C(=O)N[C@@H](CCC(=O)O)C(=O)N[C@@H](Cc1c[nH]c2ccccc12)C(=O)N[C@@H](CC(C)C)C(=O)N[C@@H](CCCNC(=N)N)C(=O)N[C@@H](CCCCN)C(=O)N[C@@H](CCCCN)C(=O)N[C@@H](CC(C)C)C(=O)N[C@@H](CCC(N)=O)C(=O)N[C@@H](CC(=O)O)C(=O)N[C@H](C(=O)N[C@@H](Cc1c[nH]cn1)C(=O)N[C@@H](CC(N)=O)C(=O)N[C@@H](Cc1ccccc1)C(=O)O)C(C)C)C(C)C [[Cha^7,11,15]hPTH(1-34)] (H-SVSEIQ[Cha]MHN[Cha]GKH[Cha]NSMERVEWLRKKLQDVHNF-OH) | 8.00 |
